Assay results from paper doi:10.1101/727479.
No constants are given. Whether binding was seen depends on the method and setting. Binding seen in cells or lysates may run through a third protein. Some entries that bind do so weakly or less than the wild type.

By UniProt entry, the sequences of proteins in these tests, tags left out.
UniProt P23771: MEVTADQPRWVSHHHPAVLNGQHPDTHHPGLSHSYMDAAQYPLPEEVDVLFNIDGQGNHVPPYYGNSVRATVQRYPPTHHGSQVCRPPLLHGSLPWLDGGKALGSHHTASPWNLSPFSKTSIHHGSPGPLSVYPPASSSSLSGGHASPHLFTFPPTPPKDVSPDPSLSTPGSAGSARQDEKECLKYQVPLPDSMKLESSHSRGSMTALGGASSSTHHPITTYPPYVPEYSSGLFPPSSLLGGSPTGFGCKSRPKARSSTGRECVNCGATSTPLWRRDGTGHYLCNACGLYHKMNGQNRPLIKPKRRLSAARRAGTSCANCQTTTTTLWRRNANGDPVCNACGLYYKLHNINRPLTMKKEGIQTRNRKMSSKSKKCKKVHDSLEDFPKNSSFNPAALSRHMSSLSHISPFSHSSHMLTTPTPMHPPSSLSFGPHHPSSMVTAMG
UniProt Q13535: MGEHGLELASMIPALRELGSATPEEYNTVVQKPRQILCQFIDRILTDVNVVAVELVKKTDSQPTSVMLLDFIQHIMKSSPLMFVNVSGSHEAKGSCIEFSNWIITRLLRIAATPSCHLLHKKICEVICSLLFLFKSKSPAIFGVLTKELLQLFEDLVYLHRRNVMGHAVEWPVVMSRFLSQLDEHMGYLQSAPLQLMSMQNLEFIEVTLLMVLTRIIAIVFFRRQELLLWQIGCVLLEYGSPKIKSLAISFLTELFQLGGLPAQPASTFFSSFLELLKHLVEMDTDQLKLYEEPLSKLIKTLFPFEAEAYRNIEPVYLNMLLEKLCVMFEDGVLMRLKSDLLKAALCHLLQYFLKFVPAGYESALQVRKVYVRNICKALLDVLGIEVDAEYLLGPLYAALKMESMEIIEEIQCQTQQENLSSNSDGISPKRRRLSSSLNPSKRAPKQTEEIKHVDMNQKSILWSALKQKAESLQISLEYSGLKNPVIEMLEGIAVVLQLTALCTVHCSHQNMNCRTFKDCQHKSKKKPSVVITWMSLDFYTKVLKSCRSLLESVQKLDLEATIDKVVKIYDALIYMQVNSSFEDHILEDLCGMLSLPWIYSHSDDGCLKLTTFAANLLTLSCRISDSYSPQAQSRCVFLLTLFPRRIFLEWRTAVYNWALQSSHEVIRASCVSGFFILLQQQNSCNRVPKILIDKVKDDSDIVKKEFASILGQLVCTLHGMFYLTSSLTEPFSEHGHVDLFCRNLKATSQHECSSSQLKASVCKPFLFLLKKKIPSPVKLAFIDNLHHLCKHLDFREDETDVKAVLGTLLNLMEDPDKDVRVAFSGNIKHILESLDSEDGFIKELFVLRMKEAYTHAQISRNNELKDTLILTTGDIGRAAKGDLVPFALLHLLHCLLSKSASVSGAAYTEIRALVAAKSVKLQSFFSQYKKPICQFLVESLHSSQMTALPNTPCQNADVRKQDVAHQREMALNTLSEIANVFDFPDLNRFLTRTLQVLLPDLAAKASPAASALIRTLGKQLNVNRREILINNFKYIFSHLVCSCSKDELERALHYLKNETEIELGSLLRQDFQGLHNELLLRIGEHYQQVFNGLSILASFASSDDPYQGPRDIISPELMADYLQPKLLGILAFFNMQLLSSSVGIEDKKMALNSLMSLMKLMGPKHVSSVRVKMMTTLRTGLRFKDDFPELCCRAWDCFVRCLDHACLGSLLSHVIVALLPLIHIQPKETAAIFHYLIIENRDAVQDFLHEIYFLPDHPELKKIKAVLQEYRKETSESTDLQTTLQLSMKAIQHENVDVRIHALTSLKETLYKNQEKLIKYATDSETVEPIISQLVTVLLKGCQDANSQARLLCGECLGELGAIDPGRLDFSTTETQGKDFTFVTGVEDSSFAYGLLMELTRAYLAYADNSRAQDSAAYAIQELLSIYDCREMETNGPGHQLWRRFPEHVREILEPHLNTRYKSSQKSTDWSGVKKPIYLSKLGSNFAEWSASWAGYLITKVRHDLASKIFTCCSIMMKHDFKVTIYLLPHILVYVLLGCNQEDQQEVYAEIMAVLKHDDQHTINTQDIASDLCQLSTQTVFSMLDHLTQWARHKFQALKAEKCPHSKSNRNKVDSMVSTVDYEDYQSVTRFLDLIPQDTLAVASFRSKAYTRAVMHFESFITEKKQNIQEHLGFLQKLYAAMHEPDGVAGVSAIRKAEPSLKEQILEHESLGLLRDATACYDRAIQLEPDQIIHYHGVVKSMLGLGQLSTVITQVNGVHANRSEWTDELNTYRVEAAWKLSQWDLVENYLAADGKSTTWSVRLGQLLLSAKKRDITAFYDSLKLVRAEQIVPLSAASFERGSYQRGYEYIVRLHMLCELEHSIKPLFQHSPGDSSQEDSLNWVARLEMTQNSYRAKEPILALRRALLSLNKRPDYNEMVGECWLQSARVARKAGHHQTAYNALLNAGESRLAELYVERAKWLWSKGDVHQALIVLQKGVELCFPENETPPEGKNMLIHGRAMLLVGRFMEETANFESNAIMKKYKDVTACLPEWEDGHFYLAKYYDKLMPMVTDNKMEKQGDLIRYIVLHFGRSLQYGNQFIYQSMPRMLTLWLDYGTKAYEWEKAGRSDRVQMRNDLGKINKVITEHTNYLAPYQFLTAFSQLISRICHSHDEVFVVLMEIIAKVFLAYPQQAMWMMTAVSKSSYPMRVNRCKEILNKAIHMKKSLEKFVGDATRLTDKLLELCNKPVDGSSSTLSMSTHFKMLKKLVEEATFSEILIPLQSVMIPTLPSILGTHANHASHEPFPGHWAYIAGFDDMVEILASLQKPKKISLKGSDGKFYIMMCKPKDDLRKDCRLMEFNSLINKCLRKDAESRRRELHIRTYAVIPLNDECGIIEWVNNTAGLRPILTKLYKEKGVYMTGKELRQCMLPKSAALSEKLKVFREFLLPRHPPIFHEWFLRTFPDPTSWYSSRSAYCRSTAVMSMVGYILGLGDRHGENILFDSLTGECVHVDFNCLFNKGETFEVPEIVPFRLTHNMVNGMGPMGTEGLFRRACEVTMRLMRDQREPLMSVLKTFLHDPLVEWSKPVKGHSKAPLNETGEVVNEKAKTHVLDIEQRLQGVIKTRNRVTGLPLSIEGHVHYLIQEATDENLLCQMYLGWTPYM

Columns and labels:
[1] = molecular target: T1, Chk1 (human (endogenous in primary CD4+ T cells)) (UniProt O14757); test: co-IP
T1 sequence: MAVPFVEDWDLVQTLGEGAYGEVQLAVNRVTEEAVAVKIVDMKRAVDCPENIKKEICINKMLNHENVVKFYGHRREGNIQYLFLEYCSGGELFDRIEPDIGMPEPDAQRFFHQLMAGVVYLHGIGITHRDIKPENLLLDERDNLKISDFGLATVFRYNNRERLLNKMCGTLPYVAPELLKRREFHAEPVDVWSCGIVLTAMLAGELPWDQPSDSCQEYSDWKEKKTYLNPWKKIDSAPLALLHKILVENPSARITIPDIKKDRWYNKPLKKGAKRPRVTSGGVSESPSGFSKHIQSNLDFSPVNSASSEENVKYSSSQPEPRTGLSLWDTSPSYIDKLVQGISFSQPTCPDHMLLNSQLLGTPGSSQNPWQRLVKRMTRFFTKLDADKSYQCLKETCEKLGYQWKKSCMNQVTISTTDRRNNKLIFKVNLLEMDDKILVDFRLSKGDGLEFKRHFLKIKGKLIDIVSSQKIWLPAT

[2] = molecular target: T2, peroxisome-proliferator-activated receptor γ co-activator-1α (PGC1α) (human (endogenous in primary CD4+ T cells)) (UniProt Q9UBK2); test: co-IP
T2 sequence: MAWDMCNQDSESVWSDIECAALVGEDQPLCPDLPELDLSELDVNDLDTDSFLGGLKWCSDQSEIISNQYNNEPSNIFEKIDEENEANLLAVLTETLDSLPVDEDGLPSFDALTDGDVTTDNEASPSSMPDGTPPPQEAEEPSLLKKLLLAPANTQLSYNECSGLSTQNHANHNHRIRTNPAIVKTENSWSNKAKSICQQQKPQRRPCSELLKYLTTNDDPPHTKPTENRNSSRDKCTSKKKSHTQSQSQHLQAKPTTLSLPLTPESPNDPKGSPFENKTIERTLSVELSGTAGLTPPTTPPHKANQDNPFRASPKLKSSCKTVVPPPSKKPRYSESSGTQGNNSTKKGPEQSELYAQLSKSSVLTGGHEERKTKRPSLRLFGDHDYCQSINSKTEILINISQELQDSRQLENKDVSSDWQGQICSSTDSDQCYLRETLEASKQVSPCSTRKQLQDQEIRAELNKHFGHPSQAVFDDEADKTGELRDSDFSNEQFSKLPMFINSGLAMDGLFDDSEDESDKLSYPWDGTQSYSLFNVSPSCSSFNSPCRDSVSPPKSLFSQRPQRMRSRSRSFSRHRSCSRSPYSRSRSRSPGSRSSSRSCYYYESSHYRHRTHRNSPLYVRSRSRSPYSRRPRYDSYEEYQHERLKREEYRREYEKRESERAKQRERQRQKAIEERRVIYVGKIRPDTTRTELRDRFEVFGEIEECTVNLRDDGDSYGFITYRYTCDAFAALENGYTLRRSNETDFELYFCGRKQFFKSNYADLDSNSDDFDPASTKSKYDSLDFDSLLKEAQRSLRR

Row | binding [1] | binding [2] | Substance
1 | binds |  | GATA binding protein 3 (GATA3) (from UniProt P23771 1-443)
2 |  | binds | ataxia telangiectasia and Rad3-related (ATR) (from UniProt Q13535 1-2644)
